Test results taken from PubChem BioAssay AID504467 (National Center for Advancing Translational Sciences (NCATS), 2011).
Screen size: about 330,000 compounds; about 7,700 (2.3%) were called active. Inconclusive means that the source gave no clear call. Such entries were picked first, then a sample of the others. Calls come from the whole dose curve; as a rule, active = well fitted inhibition curve with a large enough effect; inconclusive = small, poorly fitted or top-dose-only effect, or effect the other way; inactive = flat fitted curve, though single readings scatter. Potencies beside an inconclusive call are fits to weak or partial responses and may not hold up.

Assay: qHTS screen for small molecules that inhibit ELG1-dependent DNA repair in human embryonic kidney (HEK293T) cells expressing luciferase-tagged ELG1; note: nearly all actives have a fitted effect of over 55% in size
Conditions: HEK293T ELG1-luciferase reporter, luminescence, 16 h, DNA damage induced by 5-fluorouridine; activity change, negative = inhibition: at 46.1 µM (top of the series)
In short: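 Quantitative HTS, concentration-response format. 2,000 cells/well co-treated with 5-fluorouridine and compound, 16 hr in 5% CO2 at 37 °C; ONE-Glo luminescence read after 30 min.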
% is set by controls: 0 for no effect and ±100 for the full control effect; potency is the fitted concentration of half-maximal effect.

Compound | Potency | activity change, negative = inhibition
CCN(CC)N=Nc1ccc(S(=O)(=O)Nc2nc(C)cc(C)n2)cc1 | inactive | –
Cc1ccccc1NC(=O)N(CCc1nc2ccccc2[nH]1)Cc1ccccc1 | inconclusive: 29.1 µM [inhibitor, partial curve, poor fit] | –
CCC(C(=O)NC(C)(C)C)N(Cc1ccc(F)cc1)C(=O)c1snc(C(N)=O)c1N (stereo not drawn) | – | inactive: -16.2%
O=C1CCC(=O)N1c1ccc(-c2nc3sc4c(c3c(=O)o2)CCC4)cc1 | – | inactive: 0%
COc1ccc2cc(C[C@@H]3CC[C@@H](CO)O3)ccc2c1 | inconclusive: 6.51 µM [activator, partial curve] | –
CCn1ccc(C(=O)N2CCOCC2)n1 | – | inactive: 3.85%
CCN(CC)c1ccc(C=C2C(=O)OC(c3ccccc3)OC2=O)cc1 (stereo not drawn) | inconclusive: 23.1 µM [activator, single point] | –
CC1(C)NC(=O)N(CCOc2cccc(Oc3ccccc3)c2)C1=O | inconclusive: 7.94 µM [activator, partial curve, poor fit] | –
CCCCc1nc2cc(C(=O)N3CCCCC3COC)ccc2o1 (stereo not drawn) | inconclusive: 20.6 µM [activator, partial curve] | –
CCN1C(=O)C(=O)N(CC(=O)N(C)CC(=O)Nc2ccccc2C(F)(F)F)C1=O | – | inactive: 6.86%
CCC(C)NC(=S)Nc1ccccc1 (stereo not drawn) | inconclusive: 14.6 µM [inhibitor, partial curve, poor fit] | –
S=c1[nH]nc(-c2cccnc2)n1/N=C/C(Cl)=C\c1ccccc1 | inconclusive: 4.11 µM [activator, full curve] | –
Cc1ccc(OCCn2nc3ccccc3n2)c(C)c1 | inconclusive: 14.6 µM [activator, partial curve] | –
COc1ccc2c(c1)CCC/C2=N\Nc1nc(C(=O)NN)cs1 | inconclusive: 10.3 µM [activator, partial curve] | –
Cc1ccc(NC(=S)N/N=C2/CCCCc3ccccc32)cc1 | – | inactive: 10%
O=C(Nc1ccc(Cl)c(Cl)c1)C1CC(=O)N(c2ccc(Br)cc2)C1 (stereo not drawn) | – | inactive: -4.82%
COC(=O)CN1C(=O)N(c2ccccc2)C(N(O)C(=O)Nc2ccccc2)C1(C)C (stereo not drawn) | inconclusive: 16.4 µM [activator, single point] | –
COc1cc(/C=N/NC(=O)c2ccccc2NS(=O)(=O)c2cccs2)ccc1O | – | inactive: 13.3%
CC(C)(CNC(=O)c1cc2c(s1)CCCC2)N1CCOCC1 | – | inactive: 7.68%
CCOC(=O)N1CCC(NC(=O)CC2C(=O)NCCN2Cc2ccccc2F)CC1 (stereo not drawn) | – | inactive: 0%
C=CCC[C@H](Cc1ccc(F)cc1)C(=O)OC[C@H](Cc1c[nH]c2ccccc12)NC(=O)[C@H](CC=C)CC(=O)N[C@H](CO)Cc1ccccc1 | – | inactive: 9.2%
COCCN(C(=O)CSc1nnc(-c2ccc(C(C)(C)C)cc2)n1N)c1c(N)n(CC(C)C)c(=O)[nH]c1=O | inconclusive: 18.3 µM [activator, partial curve, poor fit] | –
O=C(NC1CCCCC1)C1CC(=O)N(CCc2ccccc2)C1 (stereo not drawn) | inconclusive: 25.9 µM [activator, partial curve, poor fit] | –
COc1ccc(NC(=S)NCc2ccc(F)cc2)c(OC)c1 | inconclusive: 1.58 µM [activator, partial curve, poor fit] | –
CC(Oc1ccc2c3c(c(=O)oc2c1)CCC3)C(=O)NCC1CCC(C(=O)O)CC1 (stereo not drawn) | inconclusive: 25.9 µM [activator, single point] | –

Single records (already shown). Values in the order: Potency	activity change, negative = inhibition
Cc1ccc(NC(=S)N/N=C2/CCCCc3ccccc32)cc1 in the list: –	inactive: 10%
COc1ccc2cc(C[C@@H]3CC[C@@H](CO)O3)ccc2c1 in the list: inconclusive: 6.51 µM [activator, partial curve]	–
COCCN(C(=O)CSc1nnc(-c2ccc(C(C)(C)C)cc2)n1N)c1c(N)n(CC(C)C)c(=O)[nH]c1=O in the list: inconclusive: 18.3 µM [activator, partial curve, poor fit]	–
CCN(CC)N=Nc1ccc(S(=O)(=O)Nc2nc(C)cc(C)n2)cc1 in the list: inactive	–

Later entries:

Compound | Potency | activity change, negative = inhibition
CCCn1c(N)c(N(CCOC)C(=O)c2ccc(Cl)c([N+](=O)[O-])c2)c(=O)[nH]c1=O | – | inactive: 10.9%
CN(C(=O)CSc1nnc(COc2ccccc2F)n1N)C1CCCCC1 | – | inactive: 9.17%
CC(C)(CNC(=O)c1ccc([N+](=O)[O-])c(Cl)c1)CNC(=O)c1ccc([N+](=O)[O-])c(Cl)c1 | inconclusive: 18.4 µM [inhibitor, single point] | –
COc1ccc(C2Nc3ccccc3C(=O)N2Cc2ccccc2)cc1Cn1nnc2ccccc21 (stereo not drawn) | inconclusive: 13 µM [inhibitor, partial curve] | –
Cc1ccc(NS(=O)(=O)c2ccc3c(c2)n(C)c(=O)c(=O)n3C)c(C)c1 | – | inactive: -5.16%
CSc1ccccc1NC(=O)c1noc(C)c1[N+](=O)[O-] | – | inactive: 10.7%
Cc1ccc(CSC2=Nc3ccccc3C3=NC(CC(=O)NCc4ccco4)C(=O)N23)cc1 (stereo not drawn) | inconclusive: 18.4 µM [activator, single point] | –
CC[C@@H]1CC=C[C@H]2[C@H]1C(=O)N(Cc1ccccc1)[C@H]2c1ccc(C(F)(F)F)cc1 | – | inactive: -5.36%
CC(=O)n1nc(-c2ccc(C)cc2)nc1NCc1ccc(F)cc1 | inconclusive: 18.3 µM [activator, single point] | –
CCSc1ncc(/C=N/Nc2ccc(Cl)cc2)n1C | inconclusive: 9.2 µM [activator, partial curve] | –
Cc1cccc(/C=N\Nc2cn[nH]c(=O)c2Cl)c1 | inconclusive: 20.6 µM [activator, partial curve] | –
Brc1ccc(-n2cnc(-c3ccccc3)c2)cc1 | inconclusive: 6.51 µM [activator, partial curve] | –
O=C(O)c1ccc(NCc2ccc(Br)cc2)cc1 | – | inactive: 18.3%
Cc1ccc[n+](C(C)C(=O)Nc2ccc(C)c(C)c2)c1 (stereo not drawn) | – | inactive: -2.46%
CC1CCCCN1S(=O)(=O)c1ccc2c(c1)CCN2C(=O)C1CC1 (stereo not drawn) | – | inactive: 1.75%
Cc1ccc(C(=O)O/N=C(\N)Cc2cccs2)c(Cl)c1 | inconclusive: 16.4 µM [activator, partial curve] | –
O=C1/C(=C\c2ccc(-c3ccccc3[N+](=O)[O-])o2)C(c2ccccc2)=NN1c1ccccc1 | inconclusive: 0.259 µM [inhibitor, single point] | –
Cc1ccc(C2CC(=O)C(C=NCCN3CCN(C(=S)Nc4ccc(F)cc4)CC3)=C(O)C2)cc1 (stereo not drawn) | – | inactive: -14.3%
COc1ccc(OC)c(C2SCCN2S(C)(=O)=O)c1 (stereo not drawn) | – | inactive: 8.82%
CN(C(=O)c1ccc2c(c1)S(=O)(=O)N=C1CCCCCN12)c1ccccc1 | – | inactive: 0%
CSc1cccc(NC(=O)c2cnccn2)c1 | inconclusive: 20.6 µM [activator, partial curve] | –
O=C(CCc1ccncc1)N1CCCC(Nc2ccc(F)c(F)c2)C1 (stereo not drawn) | – | inactive: -13.9%
COc1ccc(C(=O)Nc2cc(C)ccc2NC(=O)COc2ccccc2)cc1 | inconclusive: 29.1 µM [activator, single point] | –
Cc1ccc(NC(=S)NNS(=O)(=O)c2ccc3ccccc3c2)cc1Cl | inconclusive: 18.3 µM [inhibitor, single point] | –
Cc1nc2cc(NC(=O)NC(C)(C)C)ccc2n1C | inconclusive: 18.3 µM [activator, partial curve] | –

Compound | Potency | activity change, negative = inhibition
Nc1nonc1-n1nnc(C(=O)N/N=C/c2ccoc2)c1CSc1ccccc1 | – | inactive: 5.05%
CC(C)C(=O)N(c1ccc2oc(=O)sc2c1)S(=O)(=O)c1ccccc1 | – | inactive: -7.16%
CN(Cc1ccccc1)S(=O)(=O)c1ccc(Cl)c(C(=O)N2CCC(C(N)=O)CC2)c1 | – | inactive: -18.5%
Cc1ccc2cc(C(c3nnnn3C(C)(C)C)N3CCCC3)c(=O)[nH]c2c1C (stereo not drawn) | inconclusive: 29.1 µM [activator, single point] | –
COc1ccc(OC)c(N/C(N)=N/c2nc(C)cc(C)n2)c1 | inconclusive: 11.6 µM [inhibitor, partial curve, poor fit] | –
O=C(Nc1ccccc1N1CCN(C(=O)c2ccccc2)CC1)c1ccccc1Cl | inconclusive: 29.1 µM [inhibitor, single point] | –
CC(C)c1ccc(NC(=S)NNC(=O)C2CC2)cc1 | – | inactive: 3.13%
COc1ccc(S(=O)(=O)N2CCCC2C(=O)Nc2nc3c(s2)CCCC3)cc1 (stereo not drawn) | inconclusive: 20.6 µM [inhibitor, partial curve, poor fit] | –
CCN(CC(=O)NCc1cccs1)C(=O)COc1ccccc1C#N | inconclusive: 11.2 µM [activator, partial curve, poor fit] | –
CCCc1nnc(NC(=O)CSc2nc3ccccc3[nH]2)s1 | – | inactive: 8.12%
O=C(O)CCC(=O)N1CCN(c2ccc(C(=O)c3ccc(F)cc3)cc2)CC1 | – | inactive: -1.26%
O=C(Nc1ccccc1N1CCN(C(=O)c2ccc(Cl)cc2)CC1)c1ccc(Br)cc1 | inconclusive: 32.6 µM [inhibitor, single point] | –
Cc1ccc(-c2csc(=Nc3cccnc3)n2CCCN2CCCC2=O)cc1C | inconclusive: 25.9 µM [inhibitor, partial curve, poor fit] | –
CCOc1ccc(-n2cc(C(=O)c3cc(Cl)ccc3O)cc(C#N)c2=O)cc1 | inconclusive: 29.1 µM [inhibitor, single point] | –
CCCN1C2CCCC1CC(NC(=O)Nc1ccc(C(C)C)cc1)C2 (stereo not drawn) | – | inactive: -6.33%
CCC(Oc1ccc(C)cc1)C(=O)Nc1ccc(S(=O)(=O)Nc2nccs2)cc1 (stereo not drawn) | – | inactive: 3.83%
O=C1CCCc2c1sc1nc3n(c(=O)c21)CCCCC3 | inconclusive: 14.6 µM [activator, partial curve] | –
Nc1nc2c(F)cccc2s1 | inconclusive: 18.4 µM [activator, single point] | –
Cc1ccccc1N(C(=O)Cc1ccsc1)C(C(=O)NC1CCCCC1)c1ccc(F)cc1 (stereo not drawn) | – | inactive: 1.19%
Cc1cc(C(=O)COC(=O)CNS(=O)(=O)c2ccc3ccccc3c2)c(C)n1-c1ccccc1 | inconclusive: 20.6 µM [activator, single point] | –
Cc1[nH]c(C)c(S(=O)(=O)Nc2ccc(F)cc2Cl)c1C(=O)N1CCCC1 | inconclusive: 10.3 µM [activator, partial curve, poor fit] | –
COc1ccc(/C=N/NC(=O)c2ccn[nH]2)cc1COc1ccc(F)cc1 | – | inactive: -7.43%
c1ccc(-c2cn3nc4c(nc3n2)CCCC4)cc1 | inconclusive: 0.146 µM [activator, partial curve] | –
